Reference: PubChem BioAssay AID686938 (Drosophila RNAi Screening Center, 2013)
Aim: 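Knock-downs reducing store-operated calcium influx in Drosophila cells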 (primary screen). Cells: Drosophila S2R+ cells. Reagent: long dsRNA against Drosophila genes, about 0.25 µg dsRNA per well, roughly 10,000 cells. Timing: 5 days of knock-down before the calcium assay. Treatment: thapsigargin (SERCA pump blocker) to empty calcium stores; entry signal taken 4 min after adding it. Measured: 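Per-well fluo-4 fluorescence in two replicates, unnormalised, measured in resting cells and 4 min after store depletion by the SERCA blocker thapsigargin; ratio of the two present in few wells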. Scale: calcium entry signal: higher = stronger calcium signal after store depletion; entry to resting ratio: higher = more calcium entry relative to resting level; resting calcium signal: higher = higher resting calcium signal. Units: calcium entry signal in fluorescence units; resting calcium signal in fluorescence units. Active means: 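Called when the plate z-score of the entry-to-rest ratio, mean of duplicates, falls below −3; wells with low overall dye signal (Fmax z below −2) or more than five off-targets excluded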. Meaning of the calls: active = strongly reduced calcium entry; inactive = no strong reduction.
The screen tested about 23,000 reagents; below is an unselected part of those with a known target gene and a result. Of all reagents, 75 (0.33%) got an active call. 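Raw plate signals without normalisation; calls rest on plate z-scores that were not deposited; ratio present for only 364 wells.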 Entries without a mark were called inactive. Names joined by + are all predicted targets of the reagent. Not stated in the record: the dose of the treatment.

dve (defective proventriculus) [DRSC04680] → calcium entry signal, replicate 1: 4.60e7; calcium entry signal, replicate 2: 4.46e7; resting calcium signal, replicate 1: 2.19e7; resting calcium signal, replicate 2: 2.06e7
Cyp309a2 (Cytochrome P450 309a2) [DRSC00526] → calcium entry signal, replicate 1: 3.99e7; calcium entry signal, replicate 2: 3.87e7; resting calcium signal, replicate 1: 1.72e7; resting calcium signal, replicate 2: 1.56e7
CG17660 [DRSC00513] → calcium entry signal, replicate 1: 4.85e7; resting calcium signal, replicate 1: 2.87e7
CG31908 [DRSC21864] → calcium entry signal, replicate 1: 2.00e7; calcium entry signal, replicate 2: 3.66e7; resting calcium signal, replicate 1: 1.09e7; resting calcium signal, replicate 2: 1.65e7
CG31908 [DRSC23243] → calcium entry signal, replicate 1: 4.59e7; calcium entry signal, replicate 2: 2.80e7; resting calcium signal, replicate 1: 2.54e7; resting calcium signal, replicate 2: 1.18e7
Jon99Fii + Jon99Cii + Jon99Ciii + 1 more [DRSC15298] → calcium entry signal, replicate 1: 3.57e7; calcium entry signal, replicate 2: 5.24e7; resting calcium signal, replicate 1: 1.86e7; resting calcium signal, replicate 2: 2.03e7
tko (technical knockout) [DRSC18844] → calcium entry signal, replicate 1: 4.99e7; calcium entry signal, replicate 2: 5.56e7; entry to resting ratio: 2.4; resting calcium signal, replicate 1: 2.12e7; resting calcium signal, replicate 2: 1.99e7
CG10038 [DRSC14178] → calcium entry signal, replicate 1: 4.01e7; calcium entry signal, replicate 2: 4.76e7; resting calcium signal, replicate 1: 1.56e7; resting calcium signal, replicate 2: 2.16e7
CG3123 [DRSC00570] → calcium entry signal, replicate 1: 3.64e7; calcium entry signal, replicate 2: 4.07e7; resting calcium signal, replicate 1: 1.71e7; resting calcium signal, replicate 2: 1.75e7
tth (toothrin) [DRSC19435] → calcium entry signal, replicate 1: 3.57e7; calcium entry signal, replicate 2: 4.04e7; resting calcium signal, replicate 1: 1.49e7; resting calcium signal, replicate 2: 1.91e7
CG18662 [DRSC02691] → calcium entry signal, replicate 1: 2.55e7; calcium entry signal, replicate 2: 3.31e7; resting calcium signal, replicate 1: 1.24e7; resting calcium signal, replicate 2: 1.48e7
CG33702 [DRSC08986] → calcium entry signal, replicate 1: 4.24e7; calcium entry signal, replicate 2: 4.92e7; resting calcium signal, replicate 1: 2.24e7; resting calcium signal, replicate 2: 2.34e7
CG9346 [DRSC04542] → calcium entry signal, replicate 1: 3.63e7; resting calcium signal, replicate 1: 1.97e7
CG7194 [DRSC10784] → calcium entry signal, replicate 1: 2.11e7; calcium entry signal, replicate 2: 3.17e7; resting calcium signal, replicate 1: 1.06e7; resting calcium signal, replicate 2: 1.40e7
